Experimental data as given in the supplement of paper PMC7411640.
Structures can show the parent of a compound that is named as a salt. The list shows a part of the results. Repeats in this data set agree poorly, so a single value says little.

System: MDA-MB-468
Assay: phospho-S6 immunofluorescence (DAPI-normalised), per-plate z-score; higher = higher phospho-S6 signal (less pathway suppression)
Settings: 24 h
Method: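 GPCR-targeted compound library (MedChemExpress HY-L006) tested on MDA-MB-468 PTEN-null TNBC cells in 384-well plates at 0.1, 1 or 10 uM, combined with vehicle, GDC0941 450 nM or lapatinib 1 uM, for 24 h. Phospho-S6 (S240/244) immunofluorescence normalised to DAPI and expressed as a per-plate z-score; values are the mean of biological triplicates.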

[1] = compound 0.1 µM, co-treatment: GDC0941 450 nM
[2] = compound 0.1 µM, co-treatment: lapatinib 1 uM
[3] = compound 0.1 µM, co-treatment: vehicle
[4] = compound 1 µM, co-treatment: GDC0941 450 nM
[5] = compound 1 µM, co-treatment: lapatinib 1 uM
[6] = compound 1 µM, co-treatment: vehicle

Row | SMILES | phospho-S6 immunofluorescence (z-score) [1] | phospho-S6 immunofluorescence (z-score) [2] | phospho-S6 immunofluorescence (z-score) [3] | phospho-S6 immunofluorescence (z-score) [4] | phospho-S6 immunofluorescence (z-score) [5] | phospho-S6 immunofluorescence (z-score) [6]
1 | Cc1ccc(/C(=C\CN2CCCC2)c2cccc(/C=C/C(=O)O)n2)cc1 [Acrivastine] | -0.8 | 0.68 | 0.12 | -1.03 | 0.54 | 1
2 | CC(=O)OCC(=O)[C@@]1(O)CC[C@H]2[C@@H]3CCC4=CC(=O)CC[C@]4(C)[C@H]3C(=O)C[C@@]21C [Cortisone (acetate)] | 0.31 | 0.83 | 0.56 | 1.42 | 0.92 | 0.8
3 | C[C@H](Nc1cc(NS(=O)(=O)N2CCC2)nc(SCc2cccc(F)c2F)n1)[C@@H](O)CO | -2.14 | -1.69 | -0.88 | -1.16 | -0.41 | -1.02
4 | C[N+]1(C)CCC(OC(=O)C(O)(c2ccccc2)C2CCCC2)C1 (centres undefined) [Glycopyrrolate] | 0.44 | 0.34 | 1.74 | 0.33 | -0.05 | 1.14
5 | C[C@H](NC(=O)c1c(C(F)F)nn(C)c1Oc1cccc(C(F)(F)F)c1)c1ccc(C(=O)O)cc1 | 0.44 | -0.09 | -0.12 | -0.08 | 0.37 | -0.34
6 | CN(C)CCOC(c1ccccc1)c1ccccc1 [Diphenhydramine (hydrochloride)] | 0.1 | -0.03 | 0.31 | 0.89 | 0.09 | 0.56
7 | CN1CCN(CC(=O)N2c3ccccc3C(=O)Nc3cccnc32)CC1 [Pirenzepine (dihydrochloride)] | 1.31 | 0.13 | 1.85 | 1.67 | 0.29 | 2.34
8 | N[C@@H](Cc1ccc(O)c(O)c1)C(=O)O | -0.08 | -0.17 | -1.07 | 0.67 | 0.16 | -0.12
9 | O=S(=O)(O)c1cc(O)ccc1O [Ethamsylate] | 0.12 | 0.02 | 1.29 | -0.82 | -0.07 | -0.35
10 | CCCCCCOc1nsnc1C1=CCCN(C)C1 [Xanomeline (oxalate)] | 0.52 | 1.33 | 0.02 | 0.15 | -0.5 | 0.34
11 | Nc1nccc(/C=C/c2ccccc2)n1 | 0.75 | 2.29 | 1.34 | -0.54 | 0.68 | 0.84
12 | O=C(O)COCCN1CCN(C(c2ccccc2)c2ccc(Cl)cc2)CC1 (centres undefined) [Cetirizine (dihydrochloride)] | -0.41 | -0.16 | -0.79 | -0.04 | 0.09 | -0.31
13 | Brc1c(NC2=NCCN2)ccc2nccnc12 [UK 14,304 (tartrate)] | 2.07 | 0.5 | 1.81 | 1.11 | 0.87 | 1.86
14 | O=C(Nc1cccc2c(=O)cc(-c3nnn[nH]3)oc12)c1ccc(OCCCCc2ccccc2)cc1 [Pranlukast] | -0.21 | 0 | -0.47 | 0.61 | 1.1 | -0.48
15 | Cc1noc(NS(=O)(=O)c2ccc(N)cc2)c1C [Sulfisoxazole] | 0.96 | 0.46 | 0.58 | 0.96 | 0.24 | 0.41
16 | OC(CCCN1CCCCC1)(c1ccccc1)c1ccccc1 [Diphenidol (hydrochloride)] | 0.67 | 0.36 | 0.02 | 1.57 | -0.21 | 0
17 | CN(C)CCSSCCNC(=O)C1CCN(C(=O)CSc2ccc(Cl)cc2)CC1 [6H05 (trifluoroacetate)] | -0.63 | 0.14 | -0.7 | -1.39 | -0.02 | -0.51
18 | CC[C@H](C)[C@@H]1NC(=O)[C@H](Cc2ccc(OC)cc2)NC(=O)CCCSC[C@@H](C(=O)N2CCC[C@H]2C(=O)N[C@@H](CC(C)C)C(=O)NCC(N)=O)NC(=O)[C@H](CC(N)=O)NC(=O)[C@H](CCC(N)=O)NC1=O [Carbetocin] | 0.33 | 0.43 | 0.9 | 0.54 | 0 | 0.76
19 | CCC(N)(C(=O)O)c1ccc(C(=O)O)cc1 (centres undefined) | -0.09 | -1.11 | -1.31 | 0.2 | -0.25 | -0.72
20 | CCCc1c2oc(C(=O)O)cc(=O)c2cc2c(=O)cc(C(=O)O)n(CC)c12 [Nedocromil] | -0.3 | -0.6 | -1.12 | 0.32 | -1.27 | 0.08
21 | Fc1ccc(-c2cncc(CN3CCN(c4cccc5c4OCCO5)CC3)c2)cc1 [Adoprazine] | -0.21 | -0.2 | -1.15 | -0.22 | -0.65 | -1.91
22 | COc1ccc(/C=C/C(=O)Nc2ccccc2C(=O)O)cc1OC [Tranilast (trans-)] | 0.72 | 0.95 | 0.42 | 1.44 | 0 | 0.24
23 | CN1C2CCCC1CC(NC(=O)c1nn(C)c3ccccc13)C2 (centres undefined) [Granisetron (Hydrochloride)] | -0.11 | -0.57 | -0.61 | 0.3 | 0.16 | 0.15
24 | Cc1cc(NC(=O)NCCN2CCC(O)(Cc3ccccc3)CC2)c2ccccc2n1 [Palosuran] | -0.44 | 0.29 | 0.98 | -1.31 | 0.21 | 0.18
25 | Cc1cc(C)nc(NS(=O)(=O)c2ccc(NC(=S)NC(=O)COc3ccc(Br)cc3Cl)cc2)n1 | 1.44 | 0.77 | 0.82 | 0.47 | -0.49 | 0.5

Row | SMILES | phospho-S6 immunofluorescence (z-score) [1] | phospho-S6 immunofluorescence (z-score) [2] | phospho-S6 immunofluorescence (z-score) [3] | phospho-S6 immunofluorescence (z-score) [4] | phospho-S6 immunofluorescence (z-score) [5] | phospho-S6 immunofluorescence (z-score) [6]
26 | CN1CC2c3ccccc3Oc3ccc(Cl)cc3C2C1 (centres undefined) [Asenapine (maleate)] | -0.48 | -0.48 | 0.09 | 0.27 | 0.72 | -0.38
27 | O=C1CCC(c2ccccc2)(C2CCN(Cc3ccccc3)CC2)C(=O)N1 (centres undefined) [Benzetimide (hydrochloride)] | -1.12 | 0.17 | 0.04 | 0.8 | -0.99 | 0.49
28 | O=c1cc(C(Cl)(Cl)Cl)oc2ccc(Cl)cc12 | -0.28 | 8.2 | 5.48 | -7.24 | -13.5 | -11.4
29 | CCOCCn1c(C2CCN(CCc3ccc(C(C)(C)C(=O)O)cc3)CC2)nc2ccccc21 [Bilastine] | -0.46 | -1.1 | 1.22 | -1.29 | -1.07 | -1.04
30 | COc1ccccc1Oc1c(NS(=O)(=O)c2ccc(C(C)(C)C)cc2)nc(-c2ncccn2)nc1OCCO [Bosentan] | 0.14 | -0.44 | -0.79 | 0.25 | -0.3 | 0.02
31 | CC(=O)OCC(=O)[C@@]1(O)CC[C@H]2[C@@H]3CCC4=CC(=O)CC[C@]4(C)[C@H]3[C@@H](O)C[C@@]21C [Hydrocortisone (acetate)] | -0.56 | -0.06 | -0.09 | -1.11 | 1.35 | 0.97
32 | Cc1nccn1CCC(C(N)=O)(c1ccccc1)c1ccccc1 [Imidafenacin] | 1.13 | -0.17 | 1.44 | -0.78 | 0.48 | 1.02
33 | OCCN1CCN(CCCN2c3ccccc3Sc3ccc(C(F)(F)F)cc32)CC1 [Fluphenazine (dihydrochloride)] | -1.46 | -0.91 | -2.3 | -0.59 | -0.57 | -1.77
34 | CCc1ccc(OCc2ccccc2C(=O)Nc2ccc3nc(C)cc(N)c3c2)cc1 | -0.75 | -0.05 | -0.57 | 1.06 | 0.31 | 1.08
35 | C[C@H](Cc1cc2c(c(C(N)=O)c1)N(CCCO)CC2)NCCOc1ccccc1OCC(F)(F)F [Silodosin] | -0.37 | 0.57 | 0.23 | -0.98 | -0.13 | 0.25
36 | NC(=O)c1ccc[n+]([O-])c1 [Nicotinamide N-oxide] | -0.45 | 0.66 | 0.09 | -0.35 | 0.06 | 0.06
37 | CN/C(=N\CCSCc1nc[nH]c1C)NC#N [Cimetidine] | 0.51 | -0.49 | -0.14 | 0.24 | 0.16 | -0.35
38 | NCCCCN(Cc1nc2ccccc2[nH]1)[C@H]1CCCc2cccnc21 [AMD-070 (hydrochloride)] | 1.28 | -0.05 | 2.3 | -0.8 | 0.55 | 4.21
39 | Cc1ccc(OCC(O)C(C)NC(C)C)c2c1CCC2 (centres undefined) [ICI 118,551 (hydrochloride)] | 0.22 | -0.26 | 1.36 | 1.22 | 0.88 | -0.07
40 | CC(C[N+](C)(C)C)OC(N)=O (centres undefined) [Bethanechol (chloride)] | 0.25 | -1.04 | 1.11 | 0.07 | -0.61 | 0.67
41 | CCN(CC)CC#CCOC(=O)C(O)(c1ccccc1)C1CCCCC1 (centres undefined) [Oxybutynin] | -0.85 | -0.28 | 1.15 | 0.12 | 0.18 | 0.18
42 | CC(C)[C@H](NC(=O)[C@H](CCCN=C(N)N)NC(=O)[C@@H](N)CC(=O)O)C(=O)N[C@@H](Cc1ccc(O)cc1)C(=O)N[C@H](C(=O)N[C@@H](Cc1cnc[nH]1)C(=O)N1CCC[C@H]1C(=O)N[C@@H](Cc1ccccc1)C(=O)O)C(C)C [Angiotensin II 5-valine] | 0.83 | 0.91 | 0.55 | 0.99 | 1.87 | -0.11
43 | CCNC(=O)[C@@H]1CCCN1C(=O)[C@H](CCCN=C(N)N)NC(=O)[C@H](CC(C)C)NC(=O)[C@@H](C)NC(=O)[C@H](Cc1ccc(O)cc1)NC(=O)[C@H](CO)NC(=O)[C@H](Cc1c[nH]c2ccccc12)NC(=O)[C@H](Cc1cnc[nH]1)NC(=O)[C@@H]1CCC(=O)N1 [Alarelin (Acetate)] | 0.44 | 1.28 | 1.68 | 0.63 | -0.42 | 1.43
44 | O=C(N[C@H]1CCN(C(=O)c2cc(C(F)(F)F)cc(C(F)(F)F)c2)[C@H](Cc2ccc(Cl)cc2)C1)c1ccnc2ccccc12 | -0.77 | -0.58 | -0.27 | 0.05 | -0.8 | 0.07
45 | CCN(CC)CCOC(=O)[C@@H](Cc1cccc2ccccc12)C[C@@H]1CCCO1 [Naftidrofuryl (oxalate)] | -1.21 | -0.78 | -1.62 | -1.03 | -0.83 | -2.09
46 | COc1ccc(/C=C/C(=O)Nc2ccccc2C(=O)O)cc1OC [Tranilast] | 2.16 | -0.9 | -0.03 | 1.88 | -0.19 | 0.23
47 | CCCCC1=NC2(CCCC2)C(=O)N1Cc1ccc(-c2ccccc2-c2nnn[nH]2)cc1 [Irbesartan] | -0.14 | -0.28 | -0.06 | -0.59 | -0.5 | -0.48
48 | COc1cc2c(cc1OC)CC(=O)N(CCCN(C)C[C@H]1Cc3cc(OC)c(OC)cc31)CC2 [Ivabradine (hydrochloride)] | 0.33 | -0.32 | 0.21 | 0.55 | 0.14 | 1.34
49 | Oc1ccc(C2CNCCc3c2cc(O)c(O)c3Cl)cc1 (centres undefined) [Fenoldopam (mesylate)] | 0.14 | -0.75 | -0.5 | 2.29 | 0.31 | -0.11

Full records from above:
CC(C[N+](C)(C)C)OC(N)=O (centres undefined) [Bethanechol (chloride)] as listed: phospho-S6 immunofluorescence (z-score) [1]: 0.25; phospho-S6 immunofluorescence (z-score) [2]: -1.04; phospho-S6 immunofluorescence (z-score) [3]: 1.11; phospho-S6 immunofluorescence (z-score) [4]: 0.07; phospho-S6 immunofluorescence (z-score) [5]: -0.61; phospho-S6 immunofluorescence (z-score) [6]: 0.67
O=c1cc(C(Cl)(Cl)Cl)oc2ccc(Cl)cc12 as listed: phospho-S6 immunofluorescence (z-score) [1]: -0.28; phospho-S6 immunofluorescence (z-score) [2]: 8.2; phospho-S6 immunofluorescence (z-score) [3]: 5.48; phospho-S6 immunofluorescence (z-score) [4]: -7.24; phospho-S6 immunofluorescence (z-score) [5]: -13.5; phospho-S6 immunofluorescence (z-score) [6]: -11.4
